Data: PubChem BioAssay AID2685 (National Center for Advancing Translational Sciences (NCATS), 2010)
Some of the results follow. Further columns of the screen follow, without active or inactive calls. The list favours compounds with an active or inconclusive main result. The note in brackets gives the kind of curve behind each potency; many fits are weak.

Test: qHTS Assay for Lipid Storage Modulators in Drosophila S3 Cells;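 for cell number change: cells counted by Cell Tracker Red CMTPX staining in the red channel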
Conditions: BODIPY lipid droplet fluorescence, 18-24 h; for cell number change: measured here: cell count max response, cells fed with added oleic acid
In short: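 Drosophila S3 cells got compounds at several concentrations plus oleic acid (400 uM solution). Laser-scanning cytometry with 488 nm excitation read lipid droplets at 500-530 nm and cells at 575-640 nm. Percent activity was relative to 20 uM Triacsin C.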

[1] = measured here: cell number channel AC50, cells fed with added oleic acid
[2] = measured here: lipid fluorescence (Fed channel) AC50, cells fed with added oleic acid

| Structure (SMILES) | cell number change | AC50 [1] | AC50 [2] |
| --- | --- | --- | --- |
| CCC(C)Sc1cccc(-c2nc3cc(C)ccn3c2NCc2ccccc2)c1 (stereo not drawn) | -57% | 10.3 µM [falling, partial curve] |  |
| O=C(NCCn1cccn1)C1CCC(=O)N(CCc2ccccc2)C1 (stereo not drawn) | 17.3% |  |  |
| Cc1ccc2sc(N(CCCN(C)C)C(=O)c3nc4ccccc4s3)nc2c1C | -67% | 2.31 µM [falling, partial curve] | 5.8 µM [falling, full curve] |
| O=C(O)COc1ccccc1/C=N/NC(=O)c1cc(-c2ccc(F)cc2)nc2ccccc12 | -88.9% | 18.4 µM [falling, single point] |  |
| COc1cc(/C=C/C(=O)N(Cc2ccccc2)c2ccccn2)cc(OC)c1OC | 21.2% |  | 5.17 µM [rising, full curve, poor fit] |
| CC(=O)Nc1ccc(S(=O)(=O)N/N=C/c2ccc(C)o2)cc1 | 27.2% |  | 0.58 µM [rising, single point] |
| O=C(c1n[nH]c2ccccc12)N1CCOCC1 | -23.7% | 0.112 µM [falling, full curve, poor fit] |  |
| C#Cc1ccc(CN2CCC(Oc3ccc(C(=O)NCc4ccccn4)cc3)CC2)cc1 | -41.6% |  |  |
| CC(Cc1ccsc1)NC(=O)CCc1nnc(COc2ccccc2)o1 (stereo not drawn) | -28.6% |  | 0.164 µM [falling, full curve] |
| COc1ccc(Nc2nc(NC(C)(C)C)nc(N3CCCC3)n2)c(OC)c1 |  | 6.51 µM [rising, single point] | 2.31 µM [rising, partial curve] |
| Cc1ccc(NC(=O)CN(C)C(=O)c2ccc(Cl)nc2)cc1 | 2.63% |  | 0.398 µM [falling, single point] |
| Cc1cc(C)c(C)c(S(=O)(=O)N2CCN(c3ccc(O)cc3)CC2)c1C | 30.3% | 20.6 µM [rising, single point] | 23.1 µM [rising, single point] |
| Cc1ccc(-n2nnnc2CNC(=O)c2ccc([N+](=O)[O-])o2)cc1C | 30.8% | 2.91 µM [rising, full curve] | 13 µM [falling, single point] |
| CC(=O)N(C1=C(O)c2ccccc2C(=O)C1=O)C1CCCCC1 | -3.85% |  | 7.31 µM [falling, single point] |
| CSc1ncccc1C(=O)OCC(=O)NC(C)C | 37.4% |  | 29.1 µM [rising, single point] |
| CN(C)S(=O)(=O)c1ccc(Cl)c(NC(=O)CSc2nc3c(cc2C#N)C(=O)CC(C)(C)C3)c1 | -41.8% | 1.03 µM [falling, full curve] | 1.64 µM [falling, partial curve] |
| COc1ccc(C2/C(=C(/O)c3ccc(C)cc3)C(=O)C(=O)N2c2ccccn2)cc1 (stereo not drawn) | 23.9% | 0.00651 µM [rising, full curve, poor fit] |  |
| O=C(Nc1ccc(Cl)cc1)c1cnc(-c2ccccc2)nc1-c1ccccc1 |  | 0.259 µM [falling, full curve, poor fit] | 1.64 µM [falling, partial curve, poor fit] |
| CCCC12CN3CCN(CC(C3)/C1=N\NC(=O)Nc1ccccc1)C2 | 4.9% |  |  |
| COc1cc(OC)c(C(=O)NC2CC(C)(C)NC(C)(C)C2)cc1OC | -46.1% | 29.1 µM [falling, single point] | 29.1 µM [falling, single point] |
| Cc1cc(C)cc(C(=O)NCC(=O)OCC(=O)N(C)c2ccccc2)c1 |  |  | 6.51 µM [rising, single point] |

| Structure (SMILES) | cell number change | AC50 [1] | AC50 [2] |
| --- | --- | --- | --- |
| Cc1ccc(C)c2[nH]c(=O)c(CN(CC3CCCO3)S(=O)(=O)c3ccc4c(c3)OCCO4)cc12 (stereo not drawn) | 5.5% |  |  |
| COc1ccc(Cl)cc1NC(=O)CN(C1CCCCC1)S(C)(=O)=O | 3.58% |  | 8.2 µM [rising, partial curve] |
| COc1ccc(/C=N/NC(=O)CNC(=O)c2ccncc2)cc1OC | 12.5% |  | 29.1 µM [falling, single point] |
| O=C(CN1CCCc2ccccc21)N/N=C/c1ccccc1 | 1.34% |  | 16.4 µM [rising, partial curve] |
| COc1ccc(NC(=O)C2CCCN(c3nc(C)cc(C)n3)C2)cc1 (stereo not drawn) |  |  | 8.2 µM [rising, partial curve, poor fit] |
| Cc1nnc(SCC(=O)c2cc(C)n(-c3c(C)n(C)n(-c4ccccc4)c3=O)c2C)s1 | -3.32% | 0.184 µM [rising, full curve, poor fit] |  |
| N#CC(CO)(Cc1ccc(OC(F)F)cc1)c1nc2ccccc2[nH]1 (stereo not drawn) | 4.15% |  | 6.51 µM [rising, single point] |
| O=[N+]([O-])c1ccc(OCCN2CCNCC2)cc1 | -30.7% | 29.1 µM [falling, single point] | 23.1 µM [falling, partial curve] |
| Cc1nc2cc(C)c(C)cc2s1 | -5.78% |  | 0.517 µM [rising, full curve, poor fit] |
| N#Cc1ccc(C2N=C(c3ccccc3)NO2)cc1 (stereo not drawn) | -11.4% |  |  |
| COc1ccc(N(C(=O)c2cccnc2)S(=O)(=O)c2cccc([N+](=O)[O-])c2)cc1 | -25.8% |  |  |
| COc1ccc(C(=O)Cn2c(C)nc([N+](=O)[O-])c2Br)cc1 | -8.54% |  | 1.03 µM [falling, full curve] |
| CCOc1ccc(NC(=O)c2ccccc2NC(=O)CN(C)CC(=O)Nc2ccc(C)cc2)cc1 | -12.5% |  | 6.51 µM [falling, single point] |
| COc1ccc(OC)c(NC(=O)C2CCN(Cc3cnn(-c4ccccc4)c3-n3cccc3)CC2)c1 | -9.79% |  | 20.6 µM [rising, partial curve] |
| O=C(COC(=O)c1cccs1)NCCc1ccc(F)cc1 | 12.4% |  |  |
| S=c1nc[nH]c2c1cnn2Cc1ccccc1 | 3.86% |  |  |
| O=S(=O)(NC1CCCCC1NCc1ccco1)c1ccccc1 (stereo not drawn) | -24.9% |  | 11.6 µM [falling, partial curve, poor fit] |
| Cc1ccc(CNS(=O)(=O)c2cn(C)cn2)cc1 | 14.5% |  | 0.651 µM [falling, single point] |
| COc1ccc([C@H]2CC(=O)C=C(c3cc(Cl)ccc3C)C2)cc1 | -5.17% | 0.00461 µM [falling, full curve, poor fit] | 0.651 µM [falling, partial curve] |
| Cc1ccc(Cn2c(S(=O)(=O)O)nc3ccccc32)cc1 | 1.61% |  | 0.164 µM [falling, full curve, poor fit] |
| Cc1cc(C(=O)CN2C(=O)NC3(CCCc4ccccc43)C2=O)c(C)n1Cc1ccccc1 (stereo not drawn) | -1.53% |  | 20.6 µM [rising, partial curve] |

Quoted from the listing:
Value of O=C(NCCn1cccn1)C1CCC(=O)N(CCc2ccccc2)C1 (stereo not drawn) under cell number change: 17.3%
Value of CC(=O)N(C1=C(O)c2ccccc2C(=O)C1=O)C1CCCCC1 under cell number change: -3.85%
Value of COc1ccc(Nc2nc(NC(C)(C)C)nc(N3CCCC3)n2)c(OC)c1 under AC50 [1]: 6.51 µM [rising, single point]
Value of Cc1ccc(NC(=O)CN(C)C(=O)c2ccc(Cl)nc2)cc1 under AC50 [2]: 0.398 µM [falling, single point]
Value of O=[N+]([O-])c1ccc(OCCN2CCNCC2)cc1 under cell number change: -30.7%

Additional compounds:

| Structure (SMILES) | cell number change | AC50 [1] | AC50 [2] |
| --- | --- | --- | --- |
| O=C(OCCN1C(=O)c2ccccc2C1=O)C1CCN(S(=O)(=O)c2cccs2)CC1 |  | 0.116 µM [rising, full curve, poor fit] | 0.116 µM [rising, full curve, poor fit] |
| O=C(Cc1ccc(NC2=NC3CS(=O)(=O)CC3S2)cc1)Nc1ccc(F)cc1 (stereo not drawn) | 17.9% |  |  |
| Cc1noc(C)c1C(=O)NCCCc1ccccc1 | 4.3% |  | 0.411 µM [falling, full curve, poor fit] |
| CCOC(=O)c1cc2sc(C)cc2n1CC(=O)N1CCc2ccccc21 | -2.71% | 0.58 µM [rising, full curve] | 0.58 µM [rising, full curve] |
| CC(C)N(C(=O)CSc1nc(Cc2ccccc2)nc2ccccc12)C(C)C | -2.93% |  | 29.1 µM [falling, single point] |
| COc1ccccc1C(=O)N/C(=C/c1ccco1)C(=O)Nc1ccc(C(=O)O)cc1 | 19.1% |  | 6.51 µM [rising, single point] |
| Fc1ccccc1CSc1nncn1NC/C=C/c1ccccc1 | 20.4% |  | 3.26 µM [rising, single point] |
| CCC(C)n1nccc1NC(=O)C(C)Cl (stereo not drawn) |  | 0.082 µM [rising, single point] |  |
| Cc1oc2ccccc2c1CC(=O)NCCCN(C)C | 8.53% |  | 29.1 µM [rising, single point] |
| O=C(NC1CC1)c1ccc(-c2ccccc2)cc1 | 1.17% |  | 0.731 µM [rising, single point] |
| O=C(/C=C/c1ccccc1)c1ccoc1 |  |  | 6.51 µM [falling, single point] |
| Cc1cccc(C)c1NC(=O)CSc1nnc(NC(=O)C2CC2)s1 | -3.81% |  | 6.51 µM [falling, partial curve, poor fit] |
| COc1ccccc1C(=O)NC(=O)COc1ccc([N+](=O)[O-])cc1 | -1.39% | 0.103 µM [falling, full curve, poor fit] |  |
| COCCCNC(=O)C1CC(=O)N(c2ccc(C)cc2)C1 (stereo not drawn) | -23.8% | 4.61 µM [falling, single point] | 18.4 µM [falling, single point] |
| O=C(Cc1ccccc1)NCCSC1CCCCC1 | 31.3% |  |  |
| CN(C)S(=O)(=O)c1cccc(NC(=O)Cn2cnc3ccccc3c2=O)c1 | -6.06% |  |  |
| CC1(C)Cc2c(sc3nnn(CC(=O)Nc4ccccc4)c(=O)c23)CO1 | -44.6% | 29.1 µM [falling, single point] | 32.6 µM [falling, single point] |
| CCCn1c2ccc(C)cc2c2nnc(SCCN3CCCCC3)nc21 | 37.5% | 8.2 µM [rising, single point] |  |
| N#CCCN(C(=O)COC(=O)C1CCN(S(=O)(=O)c2cccs2)CC1)c1ccccc1 | 5.76% | 0.146 µM [falling, full curve, poor fit] | 0.116 µM [falling, full curve, poor fit] |
